Source: publication PMC8807357
These are yes or no findings as the source states them, for the method shown. Binding seen in cells or lysates may run through a third protein. Some entries that bind do so weakly or less than the wild type.

Protein sequences, listed by entry. Tags and fused reporters are not part of them.
UniProt P38936: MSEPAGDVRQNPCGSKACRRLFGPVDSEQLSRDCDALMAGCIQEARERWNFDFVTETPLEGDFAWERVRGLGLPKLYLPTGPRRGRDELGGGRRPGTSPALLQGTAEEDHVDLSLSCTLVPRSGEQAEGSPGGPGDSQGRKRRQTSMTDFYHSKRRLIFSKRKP
UniProt Q12834: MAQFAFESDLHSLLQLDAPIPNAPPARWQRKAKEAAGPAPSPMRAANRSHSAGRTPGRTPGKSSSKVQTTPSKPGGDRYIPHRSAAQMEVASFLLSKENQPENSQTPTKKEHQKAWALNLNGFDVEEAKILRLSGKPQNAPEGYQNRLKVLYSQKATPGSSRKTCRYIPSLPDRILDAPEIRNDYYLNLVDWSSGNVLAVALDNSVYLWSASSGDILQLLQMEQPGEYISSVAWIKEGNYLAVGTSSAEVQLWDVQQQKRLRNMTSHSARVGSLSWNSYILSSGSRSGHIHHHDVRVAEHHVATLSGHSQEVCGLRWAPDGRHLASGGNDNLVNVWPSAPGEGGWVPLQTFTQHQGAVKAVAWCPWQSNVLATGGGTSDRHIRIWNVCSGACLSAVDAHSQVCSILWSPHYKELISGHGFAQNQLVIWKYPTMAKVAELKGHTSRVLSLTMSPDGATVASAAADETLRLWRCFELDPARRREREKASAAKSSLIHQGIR

Target: cyclin-dependent kinase inhibitor 1A (P21) (human (endogenous in Ishikawa and HEC-1A)) (UniProt P38936)
Experiment: co-IP; Ishikawa and HEC-1A cells transiently transfected with CDC20-Myc, with or without ZXF1 (lncRNA) overexpression; lysed in NETN buffer (20 mM Tris/HCl pH 8.0, 100 mM NaCl, 1 mM EDTA, 0.5% NP-40); lysate with Protein A/G agarose beads and antibodies overnight; western blotting

Substance: cell division cycle protein 20 (CDC20), Myc-tagged (from UniProt Q12834 1-499)
- binding: binds
